The series can be described thus: general procedure: solution-phase peptide synthesis; HATU, DEPBT, TBTU. To be noted: cyclisation step.
On to Cyclo(Me-Leu-D-Leu-Phe-Me-Leu-Leu), for which the cyclisation yield turned out to be 42.5%.

For Cyclo(Me-Leu-Leu-Phe-Me-Leu-Leu), the cyclisation yield came out at 40.2%.

Cyclo(Me-Leu-Leu-D-Phe-Me-Leu-Leu) yielded a cyclisation yield of 42.3%.

Turning to Cyclo(Me-Leu-Leu-Phe-Me-D-Leu-Leu), the cyclisation yield came to 38.5%.

Substance Cyclo(Me-Leu-Leu-Phe-Me-Leu-D-Leu) gave a cyclisation yield of 34.2%.

As for Cyclo(Me-D-Leu-Leu-Phe-Me-Leu-Leu, the cyclisation yield is 36.5%.

The values are drawn from PMC5372560 (International Journal of Molecular Sciences, 2017).
